From patent US12115180B2 (Board of Supervisors of Louisiana State University and …, priority 2020, dated 2024) come the findings set out here.

In this data set the test system is neonatal rat cardiomyocytes (NRCs). Nature of the data set: Confocal microscopy of DOX distribution in cardiomyocytes (24 h). The class given is cell-based, Sprague Dawley rat.

Take `COc1cccc2c1C(=O)c1c(O)c3c(c(O)c1C2=O)C[C@@](O)(C(=O)CO)C[C@@H]3O[C@H]1C[C@H](N)[C@H](O)[C@H](C)O1` [con-DOX, doxorubicin]: under “25 μM”, the “DOX localization in cardiomyocytes at high doses” value is on record as “Cytosolic localization”. Where the note is “5, 10, and 25 μM”, the “DOX localization in cardiomyocytes” value is “completely localized into the nucleus”.
